Results on six substances are retold here after publication PMC8391897.

Protein sequences, listed by entry. Tags and fused reporters are not part of them. Lines headed by an entry give the natural chain unless they say otherwise; changes in a name come on top. Chains listed by the source or under a name are the forms on record and can include a tag or linker.
UniProt Q60598: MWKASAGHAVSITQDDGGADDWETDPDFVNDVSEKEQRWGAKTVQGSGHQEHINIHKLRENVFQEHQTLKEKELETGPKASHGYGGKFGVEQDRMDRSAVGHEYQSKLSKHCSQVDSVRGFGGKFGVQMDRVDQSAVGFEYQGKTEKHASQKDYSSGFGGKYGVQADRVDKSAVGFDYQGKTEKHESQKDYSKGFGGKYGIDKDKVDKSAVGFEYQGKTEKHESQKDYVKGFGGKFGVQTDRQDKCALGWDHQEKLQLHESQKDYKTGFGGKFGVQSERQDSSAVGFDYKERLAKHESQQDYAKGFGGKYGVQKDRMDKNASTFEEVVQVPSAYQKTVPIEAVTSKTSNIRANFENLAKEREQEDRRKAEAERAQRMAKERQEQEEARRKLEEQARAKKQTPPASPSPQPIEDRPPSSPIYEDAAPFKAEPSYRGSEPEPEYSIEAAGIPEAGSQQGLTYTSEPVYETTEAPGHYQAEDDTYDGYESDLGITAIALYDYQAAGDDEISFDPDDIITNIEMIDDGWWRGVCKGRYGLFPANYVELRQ
GFP-cortactin Y421/466/482F (Q60598, form named): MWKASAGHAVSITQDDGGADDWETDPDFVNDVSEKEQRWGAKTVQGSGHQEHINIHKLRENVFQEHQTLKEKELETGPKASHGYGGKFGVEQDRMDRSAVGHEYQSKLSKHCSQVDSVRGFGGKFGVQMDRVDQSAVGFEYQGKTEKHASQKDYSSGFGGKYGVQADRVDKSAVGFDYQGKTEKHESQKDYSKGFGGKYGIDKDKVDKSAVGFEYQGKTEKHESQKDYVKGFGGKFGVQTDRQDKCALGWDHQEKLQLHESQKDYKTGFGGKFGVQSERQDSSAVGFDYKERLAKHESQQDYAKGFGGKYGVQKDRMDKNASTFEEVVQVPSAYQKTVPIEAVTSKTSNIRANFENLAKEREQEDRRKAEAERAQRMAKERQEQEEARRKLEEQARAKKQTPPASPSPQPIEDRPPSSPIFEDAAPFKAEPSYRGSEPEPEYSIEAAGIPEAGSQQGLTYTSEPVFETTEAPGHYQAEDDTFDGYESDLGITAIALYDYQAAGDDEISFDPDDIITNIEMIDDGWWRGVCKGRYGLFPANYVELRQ
GFP-cortactin Y421/466/482D (Q60598, form named): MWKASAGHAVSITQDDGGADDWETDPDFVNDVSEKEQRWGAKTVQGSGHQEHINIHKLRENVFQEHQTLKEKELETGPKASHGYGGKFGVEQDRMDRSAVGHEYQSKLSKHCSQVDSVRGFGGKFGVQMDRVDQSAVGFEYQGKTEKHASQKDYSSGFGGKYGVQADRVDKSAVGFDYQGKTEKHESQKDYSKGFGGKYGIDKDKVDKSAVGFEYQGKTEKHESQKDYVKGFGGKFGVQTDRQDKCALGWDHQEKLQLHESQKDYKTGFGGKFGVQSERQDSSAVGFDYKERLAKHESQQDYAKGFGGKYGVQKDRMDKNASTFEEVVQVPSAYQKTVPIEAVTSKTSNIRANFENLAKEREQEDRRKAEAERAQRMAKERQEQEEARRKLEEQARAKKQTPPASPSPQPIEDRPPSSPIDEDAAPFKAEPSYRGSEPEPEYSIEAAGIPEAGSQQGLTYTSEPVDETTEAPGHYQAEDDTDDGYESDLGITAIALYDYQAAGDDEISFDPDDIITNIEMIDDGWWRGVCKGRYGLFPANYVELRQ
UniProt Q14247: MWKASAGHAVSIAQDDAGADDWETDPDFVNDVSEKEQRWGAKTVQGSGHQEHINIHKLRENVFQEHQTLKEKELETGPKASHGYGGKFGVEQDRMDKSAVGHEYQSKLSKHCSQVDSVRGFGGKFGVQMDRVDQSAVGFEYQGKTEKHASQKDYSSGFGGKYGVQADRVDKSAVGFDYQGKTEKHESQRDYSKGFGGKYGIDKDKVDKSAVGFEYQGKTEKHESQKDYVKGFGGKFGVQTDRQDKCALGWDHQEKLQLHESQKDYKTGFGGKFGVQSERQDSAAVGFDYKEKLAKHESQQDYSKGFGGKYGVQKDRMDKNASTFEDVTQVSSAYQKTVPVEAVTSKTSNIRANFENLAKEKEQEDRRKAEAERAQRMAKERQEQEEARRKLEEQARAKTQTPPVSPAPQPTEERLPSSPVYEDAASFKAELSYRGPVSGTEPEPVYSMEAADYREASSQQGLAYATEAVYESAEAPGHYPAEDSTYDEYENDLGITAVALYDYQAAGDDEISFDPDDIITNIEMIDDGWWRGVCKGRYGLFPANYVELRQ

Where a chain is given by its changes, count along the chain named. These are yes or no findings as the source states them, for the method shown. Binding seen in cells or lysates may run through a third protein. Some entries that bind do so weakly or less than the wild type. Sequences can lack the tags named with a protein.

For assay [1], the target named is T1, HA-tagged human Vav2 (human) (UniProt P52735).
T1 sequence: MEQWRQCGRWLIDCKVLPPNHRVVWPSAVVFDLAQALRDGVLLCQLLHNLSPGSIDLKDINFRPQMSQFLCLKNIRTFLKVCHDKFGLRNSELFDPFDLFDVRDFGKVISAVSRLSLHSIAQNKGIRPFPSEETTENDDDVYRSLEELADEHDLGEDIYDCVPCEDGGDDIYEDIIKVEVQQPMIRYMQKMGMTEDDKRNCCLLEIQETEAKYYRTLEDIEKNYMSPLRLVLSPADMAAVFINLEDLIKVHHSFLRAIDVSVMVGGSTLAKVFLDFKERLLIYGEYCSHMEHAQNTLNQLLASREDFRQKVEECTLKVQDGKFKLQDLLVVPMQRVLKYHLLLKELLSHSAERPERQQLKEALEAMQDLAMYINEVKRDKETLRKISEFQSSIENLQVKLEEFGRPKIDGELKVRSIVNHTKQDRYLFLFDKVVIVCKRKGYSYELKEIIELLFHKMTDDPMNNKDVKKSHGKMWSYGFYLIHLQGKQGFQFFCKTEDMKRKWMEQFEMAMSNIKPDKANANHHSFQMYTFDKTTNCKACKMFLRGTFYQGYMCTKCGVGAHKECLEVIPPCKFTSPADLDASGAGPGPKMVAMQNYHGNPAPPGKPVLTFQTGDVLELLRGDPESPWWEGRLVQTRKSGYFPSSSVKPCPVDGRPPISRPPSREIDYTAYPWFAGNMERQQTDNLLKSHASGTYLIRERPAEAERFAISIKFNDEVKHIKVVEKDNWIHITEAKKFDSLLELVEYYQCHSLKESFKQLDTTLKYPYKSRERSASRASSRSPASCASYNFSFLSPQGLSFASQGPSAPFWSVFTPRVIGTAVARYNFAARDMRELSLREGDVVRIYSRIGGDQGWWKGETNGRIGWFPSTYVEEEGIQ
In words: co-IP; AGS cells co-transfected for 48 h with GFP-cortactin constructs and HA-tagged Vav2, no H. pylori; IP with α-HA antibodies, blot with α-GFP antibodies.

Assay [2] addresses T2, GFP-Vav2 Y172/159F (UniProt P52735).
T2 sequence: T1 sequence with Y159F, Y172F
In words: co-IP; AGS cells transfected with GFP-Vav2 constructs for 48 h, infected with wt H. pylori for 6 h; IP with α-GFP antibodies, blot with α-cortactin antibody.

The target of assay [3] is T3, GFP-Vav2 R425C (UniProt P52735).
T3 sequence: T1 sequence with R425C
Described as above.

Consider “GFP-cortactin Y466D (from UniProt Q60598 1-546)”, for which, in assay [1], the binding entry is on record as “binds”.

Regarding “GFP-cortactin wt (from UniProt Q60598 1-546)”, in assay [1], the binding entry is recorded as “binds weakly”.

Take “GFP-cortactin Y421/466/482F (from UniProt Q60598 1-546)”: the binding result in assay [1] is given as “binds weakly”.

Regarding “GFP-cortactin Y421/466/482D (from UniProt Q60598 1-546)”, the binding result in assay [1] was “binds”.

As to “cortactin phosphorylated at Y-470 (from UniProt Q14247 1-550)”, the binding result in assay [2] and in assay [3] was “binds” in each case.

Consider “GFP-cortactin Y466F (from UniProt Q60598 1-546)”, for which the binding entry in assay [1] is “binds weakly”.
